In article PMC9813066:
No constants are given. Whether binding was seen depends on the method and setting. Binding seen in cells or lysates may run through a third protein. Some binding calls cover weakened binding; strength is not graded here.

The chains behind the UniProt entries cited, without tags or fusion partners.
UniProt P03372: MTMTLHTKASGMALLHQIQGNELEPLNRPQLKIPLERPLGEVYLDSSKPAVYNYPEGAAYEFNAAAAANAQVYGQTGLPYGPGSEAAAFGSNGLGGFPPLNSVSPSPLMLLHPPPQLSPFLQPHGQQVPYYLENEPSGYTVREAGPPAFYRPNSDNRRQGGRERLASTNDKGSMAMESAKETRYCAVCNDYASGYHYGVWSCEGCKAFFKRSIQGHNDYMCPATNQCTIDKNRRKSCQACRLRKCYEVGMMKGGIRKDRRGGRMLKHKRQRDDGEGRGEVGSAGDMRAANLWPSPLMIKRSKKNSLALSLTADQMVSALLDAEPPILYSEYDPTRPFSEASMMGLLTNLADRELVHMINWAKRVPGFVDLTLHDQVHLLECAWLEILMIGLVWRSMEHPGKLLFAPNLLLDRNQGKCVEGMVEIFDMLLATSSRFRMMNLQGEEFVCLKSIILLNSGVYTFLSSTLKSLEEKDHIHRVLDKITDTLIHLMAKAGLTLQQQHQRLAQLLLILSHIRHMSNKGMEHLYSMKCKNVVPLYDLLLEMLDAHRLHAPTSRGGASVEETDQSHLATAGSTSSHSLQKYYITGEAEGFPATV
UniProt Q99496: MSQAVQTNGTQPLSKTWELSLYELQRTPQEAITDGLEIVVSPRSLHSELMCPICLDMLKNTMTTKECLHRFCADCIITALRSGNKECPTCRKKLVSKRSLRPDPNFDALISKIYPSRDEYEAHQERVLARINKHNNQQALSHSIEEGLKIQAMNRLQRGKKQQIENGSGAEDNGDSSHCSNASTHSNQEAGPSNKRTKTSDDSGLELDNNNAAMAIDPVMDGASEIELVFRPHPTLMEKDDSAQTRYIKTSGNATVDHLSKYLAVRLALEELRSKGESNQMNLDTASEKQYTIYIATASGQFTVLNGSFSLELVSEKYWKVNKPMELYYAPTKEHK

Biological target: Estrogen receptor α (ERα) (human (endogenous in MCF-7)) (UniProt P03372)
Assay: co-IP; endogenous proteins; MCF-7 total cell lysate pre-cleared with Protein A + G Agarose and rabbit IgG, immunoprecipitated with anti-ERα (D8H8) 4 h at 4 °C, blotted with anti-RNF2; rabbit IgG as negative control; also in cells treated with vehicle or 10 nM E2

In the case of “RING finger protein 2 (RNF2) (from UniProt Q99496 1-336)”, the binding is reported as “binds”.
